# Drug screen on melanoma cell lines: cell count

Source: doi:10.1371/journal.pone.0140310, primary screening data, rounded.

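Human melanoma cell lines in 1,536-well plates were treated with two drugs together for 72 h, then fixed, stained and imaged. Values are the number of DAPI-stained nuclei as a percentage of the DMSO control: 100 is no effect, lower means fewer cells. Concentrations were fixed for each drug; these are the higher of two levels. No replicate spread is given; individual values may be noisy.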 Only some of the drugs and lines screened are listed, without regard to their results. An entry leaves out what has no value listed here.

All values are for the listed drug together with A-769662 (10 µM): N#Cc1c(O)c2c(-c3ccc(-c4ccccc4O)cc3)csc2[nH]c1=O

{"partner": "C/C(O)=C(\\C#N)C(=O)Nc1cc(Br)ccc1Br at 10 µM", "COLO 792": 89.7, "COLO 800": 79.6, "C32": 115, "WM3619": 109, "COLO 829": 111}
{"partner": "COc1ccc(C2=N[C@@H](c3ccc(Cl)cc3)[C@@H](c3ccc(Cl)cc3)N2C(=O)N2CCNC(=O)C2)c(OC(C)C)c1 at 0.5 µM", "COLO 792": 120, "COLO 800": 99.7, "C32": 95.2, "COLO 829": 101}
{"partner": "Cc1cc(N2CCOCC2)cc2[nH]c(-c3c(NC[C@@H](O)c4cccc(Cl)c4)cc[nH]c3=O)nc12 at 1 µM", "COLO 792": 84.8, "COLO 800": 38.0, "C32": 104, "WM3619": 85.2, "COLO 829": 121}
{"partner": "O=C(CCCCCCC(=O)Nc1ccccc1)NO at 0.4 µM", "COLO 792": 74.0, "COLO 800": 60.7, "C32": 114, "WM3619": 61.5, "COLO 829": 66.4}
{"partner": "C[As](C)SC[C@H](NC(=O)CC[C@H](N)C(=O)O)C(=O)NCC(=O)O at 2 µM", "COLO 792": 91.5, "COLO 800": 74.9, "C32": 86.1, "WM3619": 74.7, "COLO 829": 63.3}
{"partner": "O=C(Nc1ccccc1)c1cc([N+](=O)[O-])ccc1Cl at 10 µM", "COLO 792": 97.8, "COLO 800": 104, "C32": 84.2, "WM3619": 71.6, "COLO 829": 70.1}
{"partner": "NCC(=O)Nc1ccc(-n2nc(C(F)(F)F)cc2-c2ccc3c(ccc4ccccc43)c2)cc1 at 5 µM", "COLO 792": 64.8, "COLO 800": 47.9, "C32": 97.0, "WM3619": 5.4, "COLO 829": 71.1}
{"partner": "Nc1nc(F)nc2c1ncn2[C@@H]1O[C@H](CO)[C@@H](O)[C@@H]1O at 1 µM", "COLO 792": 73.2, "COLO 800": 117, "C32": 73.3, "WM3619": 83.5, "COLO 829": 61.6}
{"partner": "C[C@@H]1CCN(C(=O)CC#N)C[C@@H]1N(C)c1ncnc2[nH]ccc12 at 5 µM", "COLO 792": 115, "COLO 800": 106, "C32": 89.3, "WM3619": 76.6, "COLO 829": 99.4}
{"partner": "CC1(C)CCC(c2ccc(Cl)cc2)=C(CN2CCN(c3ccc(C(=O)NS(=O)(=O)c4ccc(N[C@H](CCN5CCOCC5)CSc5ccccc5)c(S(=O)(=O)C(F)(F)F)c4)cc3)CC2)C1 at 2 µM", "COLO 792": 18.2, "COLO 800": 41.4, "C32": 102, "WM3619": 101, "COLO 829": 93.1}
{"partner": "C=C(c1ccc(C(=O)O)cc1)c1cc2c(cc1C)C(C)(C)CCC2(C)C at 10 µM", "COLO 792": 109, "COLO 800": 141, "C32": 118, "WM3619": 86.1, "COLO 829": 67.4}
{"partner": "O=C(/C=C/c1cccnc1)NCCCCC1CCN(C(=O)c2ccccc2)CC1 at 0.05 µM", "COLO 792": 34.8, "COLO 800": 25.7, "C32": 77.5, "WM3619": 71.5, "COLO 829": 57.3}
{"partner": "CCCS(=O)(=O)Nc1ccc(F)c(C(=O)c2c[nH]c3ncc(Cl)cc23)c1F at 0.4 µM", "COLO 792": 111, "COLO 800": 118, "C32": 81.7, "WM3619": 111, "COLO 829": 105}
{"partner": "CC(=O)O[C@@]12CO[C@@H]1C[C@H](O)[C@@]1(C)C(=O)[C@H](O)C3=C(C)[C@@H](OC(=O)[C@H](O)[C@@H](NC(=O)OC(C)(C)C)c4ccccc4)C[C@@](O)([C@@H](OC(=O)c4ccccc4)[C@H]21)C3(C)C at 0.0005 µM", "COLO 792": 28.6, "COLO 800": 45.9, "C32": 92.3, "WM3619": 68.8, "COLO 829": 47.3}
{"partner": "OCCn1cc(-c2cnc3nnn(Cc4ccc5ncccc5c4)c3n2)cn1 at 5 µM", "COLO 792": 100, "COLO 800": 90.0, "C32": 92.6, "WM3619": 78.4, "COLO 829": 104}
{"partner": "Cn1c(Nc2ccc(C(F)(F)F)cc2)nc2cc(Oc3ccnc(-c4ncc(C(F)(F)F)[nH]4)c3)ccc21 at 0.4 µM", "COLO 792": 23.4, "COLO 800": 83.8, "C32": 71.0, "WM3619": 54.4, "COLO 829": 76.1}
{"partner": "O=C(Nc1cc(C(F)(F)F)cc(C(F)(F)F)c1)c1cc(Cl)ccc1O at 0.08 µM", "COLO 792": 97.1, "COLO 800": 109, "C32": 90.8, "WM3619": 105, "COLO 829": 43.5}
{"partner": "Cc1cn(-c2cc(NC(=O)c3ccc(C)c(Nc4nccc(-c5cccnc5)n4)c3)cc(C(F)(F)F)c2)cn1 at 1 µM", "COLO 792": 124, "COLO 800": 105, "C32": 82.3, "WM3619": 78.7, "COLO 829": 112}
{"partner": "Cc1nc(Nc2ncc(C(=O)Nc3c(C)cccc3Cl)s2)cc(N2CCN(CCO)CC2)n1 at 0.02 µM", "COLO 792": 68.2, "COLO 800": 60.1, "C32": 71.0, "WM3619": 68.0, "COLO 829": 53.1}
{"partner": "O=C(O)c1ccc2c(c1)nc(Nc1cccc(Cl)c1)c1ccncc12 at 2 µM", "COLO 792": 80.8, "COLO 800": 78.4, "C32": 110, "WM3619": 87.1, "COLO 829": 66.5}

2 of the entries, repeated:

Partner,COLO 792,COLO 800,C32,WM3619,COLO 829
O=C(CCCCCCC(=O)Nc1ccccc1)NO at 0.4 µM,74.0,60.7,114,61.5,66.4
Nc1nc(F)nc2c1ncn2[C@@H]1O[C@H](CO)[C@@H](O)[C@@H]1O at 1 µM,73.2,117,73.3,83.5,61.6